From PMC4231735 come the findings set out here.

Results are given in words; binding and its absence hold for the method and conditions named. In cells and extracts the contact can be indirect. Some binding calls cover weakened binding; strength is not graded here. Sequences can lack the tags named with a protein.

The experiment deals with T1, TAP-tagged Rio1 (S. cerevisiae), Q12196.
T1 chain: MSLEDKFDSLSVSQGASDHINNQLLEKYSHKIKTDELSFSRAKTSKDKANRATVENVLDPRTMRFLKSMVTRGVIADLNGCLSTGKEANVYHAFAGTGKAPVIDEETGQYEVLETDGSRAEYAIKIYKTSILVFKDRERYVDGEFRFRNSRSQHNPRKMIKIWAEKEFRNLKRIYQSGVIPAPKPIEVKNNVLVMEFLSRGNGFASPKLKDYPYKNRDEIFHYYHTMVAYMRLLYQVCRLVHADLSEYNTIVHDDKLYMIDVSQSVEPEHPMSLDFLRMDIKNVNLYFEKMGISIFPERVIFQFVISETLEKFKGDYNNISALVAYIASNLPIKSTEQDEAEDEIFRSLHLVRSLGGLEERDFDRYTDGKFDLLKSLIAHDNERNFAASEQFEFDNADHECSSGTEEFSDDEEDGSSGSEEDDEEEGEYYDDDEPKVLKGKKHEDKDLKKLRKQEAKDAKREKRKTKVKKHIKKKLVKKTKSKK
The experiment can be described thus: co-IP; tandem affinity purification (TAP) from strains expressing TAP-tagged bait; co-purified factors detected by Western blot. As to conditions: remark: other sources report otherwise. A general note: Immunoblotting shows a protein as a band on a membrane.

B1: Nob1, Q08444 1-459 (protein)
chain: MTENQTAHVRALILDATPLITQSYTHYQNYAQSFYTTPTVFQEIKDAQARKNLEIWQSLGTLKLVHPSENSIAKVSTFAKLTGDYSVLSANDLHILALTYELEIKLNNGDWRLRKKPGDALDASKADVGTDGKQKLTEDNKKEEDSESVPKKKNKRRGGKKQKAKREAREAREAENANLELESKAEEHVEEAGSKEQICNDENIKESSDLNEVFEDADDDGDWITPENLTEAIIKDSGEDTTGSLGVEASEEDRHVALNRPENQVALATGDFAVQNVALQMNLNLMNFMSGLKIKRIRNYMLRCHACFKIFPLPKDGKPKHFCASCGGQGTLLRCAVSVDSRTGNVTPHLKSNFQWNNRGNRYSVASPLSKNSQKRYGKKGHVHSKPQENVILREDQKEYEKVIKQEEWTRRHNEKILNNWIGGGSADNYISPFAITGLKQHNVRIGKGRYVNSSKRRS
With B1, the binding result is recorded as “binds”.
